# In PubChem BioAssay AID1671190 (National Center for Advancing Translational Sciences (NCATS), 2021):
# By UniProt entry, the sequences of proteins in these tests, tags left out. Where a name states a change or a piece, a line headed by the entry shows the natural chain unless it says otherwise.
# UniProt P18054: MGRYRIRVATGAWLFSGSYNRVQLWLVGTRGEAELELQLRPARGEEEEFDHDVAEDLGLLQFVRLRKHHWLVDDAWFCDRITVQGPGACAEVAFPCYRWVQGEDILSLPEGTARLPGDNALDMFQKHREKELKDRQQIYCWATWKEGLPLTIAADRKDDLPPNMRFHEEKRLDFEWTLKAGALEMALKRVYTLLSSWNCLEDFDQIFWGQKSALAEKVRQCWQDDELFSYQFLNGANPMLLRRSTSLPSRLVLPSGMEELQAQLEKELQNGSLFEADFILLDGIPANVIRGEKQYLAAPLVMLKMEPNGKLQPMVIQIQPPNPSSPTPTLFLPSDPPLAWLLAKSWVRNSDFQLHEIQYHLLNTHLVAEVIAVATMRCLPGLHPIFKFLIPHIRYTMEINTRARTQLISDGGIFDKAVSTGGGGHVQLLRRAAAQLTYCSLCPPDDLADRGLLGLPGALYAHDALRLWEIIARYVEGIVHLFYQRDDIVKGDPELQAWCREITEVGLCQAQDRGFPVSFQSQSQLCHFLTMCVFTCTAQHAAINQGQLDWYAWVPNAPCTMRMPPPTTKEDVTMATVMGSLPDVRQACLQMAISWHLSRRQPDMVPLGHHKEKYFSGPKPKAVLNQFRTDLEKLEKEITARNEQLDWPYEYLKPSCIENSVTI
# Several values for one entry are separate records, joined by “and”; a condition that tells them apart may be missing. Equal values may be shown once. About 6,100 (1.1%) of roughly 580,000 compounds were called active. This list was built around the results that the source calls inconclusive (neither active nor inactive); the mix of calls is not that of the screen. Calls come from the whole dose curve; as a rule, active = well fitted inhibition curve with a large enough effect; inconclusive = small, poorly fitted or top-dose-only effect, or another doubt; inactive = no such curve, though single readings can be large or run the other way. Potencies beside an inconclusive call are fits to weak or partial responses and may not hold up.
# Target: Polyunsaturated fatty acid lipoxygenase ALOX12 (Homo sapiens) (UniProt P18054)
# Assay: Primary qHTS assay for inhibitors of human arachidonate 12S-lipoxygenase (ALOX12): Round 2
# Conditions: purified 12hLO, xylenol orange hydroperoxide absorbance; series mostly up to 108 µM
# Procedure, shortened: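 Hydroperoxide product was detected by ferrous iron/xylenol orange as the 573 to 405 nm absorbance ratio. Arachidonic acid at 40 uM (final) was turned over for 30 min at room temperature by 150 nM human 12hLO, pH 7.0 Hepes buffer, after 15 min compound preincubation.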
# Potency is the fitted concentration of half-maximal effect.
row,SMILES,Potency
1,CN(C(=S)Nc1ccccc1)c1ccccc1,inactive
2,COc1cccc(-c2nnnn2[C@H]2CO[C@H]3[C@@H]2OC[C@@H]3NC(=O)c2ccc(C(F)(F)F)cc2)c1,"inconclusive: 31.6 µM [inhibitor, partial curve, poor fit]"
3,O=C(COC(=O)CCNS(=O)(=O)c1ccc(Cl)cc1)NCc1ccccc1,"inconclusive: 89.1 µM [inhibitor, single point]"
4,O=C1NC2(CCN(C(=O)c3ccc(F)cc3)CC2)COc2ccccc21,"inconclusive: 7.94 µM [inhibitor, full curve, poor fit]"
5,Cc1ccc(NC(=S)NCC23C=CC(O2)C2C(=O)N(c4ccc(C)cc4)C(=O)C23)cc1 (stereo not drawn),"inconclusive: 70.8 µM [inhibitor, partial curve, poor fit]"
6,Cc1ccc(SCC(=O)Nc2ccc3oc(-c4cccc(C)c4)nc3c2)cc1,"inconclusive: 100 µM [inhibitor, partial curve, poor fit]"
7,COc1cccc(C(=O)N2CCC(C(=O)NCc3ccc(C)cc3)CC2)c1,"inconclusive: 50.1 µM [inhibitor, partial curve, poor fit]"
8,Cc1cccc(NC(=S)NN=C2CCCC2)c1,active: 14.1 µM
9,Nc1nnn(CC(=O)N/N=C/C=C/c2ccccc2)n1,"inconclusive: 4.47 µM [inhibitor, full curve, poor fit]"
10,Cc1cccc(-c2noc(CN(C(C)C)S(=O)(=O)c3ccc(F)cc3)n2)c1,"inconclusive: 50.1 µM [inhibitor, partial curve, poor fit]"
11,Fc1ccc(NN=C2c3ccccc3-c3ccccc32)cc1,"inconclusive: 3.55 µM [inhibitor, full curve, poor fit]"
12,O=C(NCc1ccc2c(c1)OCO2)C1(S(=O)(=O)c2ccccc2)CC1,inactive
13,O=C(COc1ccc(Cl)cc1)NC1=NN(c2ccccc2)C(=O)C1,active: 44.7 µM
14,COc1ccc(C)cc1NC(=O)CN1C(=O)NC2(CCC(C(C)(C)C)CC2)C1=O (stereo not drawn),"inconclusive: 2.24 µM [inhibitor, full curve, poor fit]"
15,CCn1ccnc1CN(C)C(=O)CCc1nnc(CCC2CCCCC2)o1,"inconclusive: 0.708 µM [inhibitor, full curve, poor fit]"
16,Cc1onc(-c2ccccc2Cl)c1C(=O)N1CCCc2ccccc21,inactive
17,COC(=O)c1cc(OC(=O)Cc2cccc3ccccc23)cc(C(=O)OC)c1,"inconclusive: 89.1 µM [inhibitor, partial curve, poor fit]"
18,Cc1cc2nc3n(c(=O)c2n1CC(=O)Nc1ccc2c(c1)OCCO2)CCCC3,inactive
19,COc1ccc(OCC(=O)Nc2cc(-c3nc4ccc(C)cc4o3)ccc2C)cc1,inactive
20,COc1cc(OC)c(Nc2nc3ccccc3nc2NS(=O)(=O)c2cccc(C)c2)cc1Cl,inactive
21,COc1ccc(N2CC(NS(=O)(=O)c3ccc(F)cc3)CC2=O)cc1 (stereo not drawn),"inconclusive: 35.5 µM [inhibitor, single point]"
22,Cc1ccc(NC(=O)c2cnccn2)c(Br)c1,"inconclusive: 141 µM [inhibitor, single point]"

row,SMILES,Potency
1,Cc1ccc(C)c(C(=O)C(C)Sc2nc3nn(-c4ccccc4)c(=O)c-3c3n2CCCCC3)c1 (stereo not drawn),inactive
2,Cc1nccn1C1(C(=O)O)CCN(Cc2ccc(-c3ccn[nH]3)o2)CC1,"inconclusive: 50.1 µM [inhibitor, partial curve, poor fit]"
3,CCNc1ncc2nc(-c3cccs3)c(=O)n(Cc3cccs3)c2n1,"inconclusive: 1.78 µM [inhibitor, full curve, poor fit]"
4,O=S(=O)(Cc1ccccc1Cl)N1CCc2ccccc21,inactive
5,CCCCN(Cc1ccccc1)c1ccc(NS(=O)(=O)c2ccc(C(C)C)cc2)cc1C(=O)O,"inconclusive: 12.6 µM [inhibitor, full curve, poor fit]"
6,Cc1ccccc1OCCC(=O)OCC(=O)N(C)c1c(N)n(Cc2ccccc2)c(=O)[nH]c1=O,"inconclusive: 44.7 µM [inhibitor, partial curve, poor fit]"
7,CC(C)[C@H]1COCCS(=O)(=O)N1Cc1ccc(Cl)cc1,"inconclusive: 44.7 µM [inhibitor, partial curve, poor fit]"
8,Nc1nccnc1C(=O)NCCc1cccc(F)c1,"inconclusive: 141 µM [inhibitor, single point]"
9,COc1ccc(-c2nnc(SCC(=O)NC(C)c3ccc4c(c3)CCCC4)o2)cc1 (stereo not drawn),"inconclusive: 50.1 µM [inhibitor, partial curve, poor fit]"
10,CCCOc1ccc(-c2nnn(CC(=O)c3ccc4c(c3)OCCO4)n2)cc1,inactive
11,CC(NC(=O)CCn1nc(-c2ccccc2)c2ccccc2c1=O)c1ccccc1 (stereo not drawn),inactive
12,Cc1ccc(-c2noc(CN(C)C(=O)COc3ccc(Cl)cc3Cl)n2)cc1,"inconclusive: 39.8 µM [inhibitor, partial curve, poor fit]"
13,CC1(C)CC(=O)C2=C(C1)N1CCc3cc4c(cc3C1=CC2c1ccc(F)cc1)OCCCO4 (stereo not drawn),active: 25.1 µM
14,CCc1nc2cc(N3CCCC(C(=O)NC4CCCC4)C3)cnc2nc1CC (stereo not drawn),inactive
15,Cc1ccc(C(=O)NC(=C(Cl)Cl)S(=O)(=O)c2ccc(Cl)cc2)cc1,"inconclusive: 63.1 µM [inhibitor, partial curve, poor fit]"
16,O=C(O)C(Cl)C12CC3CC(C1)CC(C(Cl)C(=O)O)(C3)C2 (stereo not drawn),"inconclusive: 0.0708 µM [inhibitor, full curve, poor fit]"
17,Cc1ccc(-c2cc(C(=O)Nc3ccccn3)c3ccccc3n2)o1,active: 28.2 µM and active: 6.31 µM
18,CCc1ccc(C(=O)COC(=O)c2ccc(C(=O)c3ccccc3)cc2)cc1,inactive
19,Cc1cc(Br)cc(Cl)c1OCC(=O)NC(=O)NCc1ccccc1,inactive
20,COc1ccc2cc(C(=O)CS(=O)(=O)c3ccc(Cl)cc3)c(=O)oc2c1,"inconclusive: 44.7 µM [inhibitor, partial curve, poor fit]"
21,Cn1c(=O)c(/C=C/c2ccccc2)nc2ccccc21,"inconclusive: 5.01 µM [inhibitor, full curve, poor fit]"

# Two of the compounds above, as tab-separated lines:
row	SMILES	Potency
2	COc1cccc(-c2nnnn2[C@H]2CO[C@H]3[C@@H]2OC[C@@H]3NC(=O)c2ccc(C(F)(F)F)cc2)c1	inconclusive: 31.6 µM [inhibitor, partial curve, poor fit]
3	O=C(COC(=O)CCNS(=O)(=O)c1ccc(Cl)cc1)NCc1ccccc1	inconclusive: 89.1 µM [inhibitor, single point]
